Experimental data taken from PubChem BioAssay AID493014 (National Center for Advancing Translational Sciences (NCATS), 2011).
Hit rate of the full screen: of about 340,000 compounds, about 170 (0.05%) were called active. Inconclusive means that the source gave no clear call. Such entries were picked first, then a sample of the others. Calls follow the shape of the dose curve; as a rule, active = well fitted inhibition curve with a large enough effect in the signal ratio, with a control signal flat (not every such curve was filed as active); inconclusive = small, poorly fitted or top-dose-only effect, or effect the other way, or a change in a side signal; inactive = flat fitted curve, though single readings scatter; the % refers to the signal ratio. Where the call is inconclusive, the potency comes from a doubtful curve fit.

Assay: qHTS Assay to Find Inhibitors of Chronic Active B-Cell Receptor Signaling;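 as to activity change, negative = inhibition: plate controls were basal doxycycline-induced cells for no effect and cells given 10 µM MG132 for full effect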
Settings: ABC-DLBCL IkBa-CBG/CBR reporter, luminescence ratio (green luciferase fused to IkBa over red control in TMD8 lymphoma cells), 4 h; activity change, negative = inhibition: at 46.1 µM (top of the series)
How it was run: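 Cell line TMD8 (human ABC DLBCL), stably expressing tet-inducible CBG68-IkBa fusion and CBR; IMDM/0.5% FBS; cpd up to 46 uM; dox induction, 4 h, 37C/5% CO2; dual luminescence; green/red ratio; MG132 control.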
Potency is read from the fitted curve at half-maximal effect.

Compound | activity change, negative = inhibition | Potency
CCCCNC(=S)NC(=O)c1ccccc1Br | inconclusive: 13.6% | –
COc1ccc(C(=O)NCCc2nnc3ccc(SCC(=O)NCc4ccccc4)nn23)cc1 | inconclusive: -2.43% | –
O=c1cc(CN2CCN(S(=O)(=O)c3ccccc3)CC2)nc2ccc(Cl)cn12 | inconclusive: -0.554% | –
CCC(=O)Nc1sc2c(c1C(=O)Nc1ccccc1C)CCC(C)C2 (stereo unspecified) | inconclusive: 23.3% | –
COCCn1c(SCC(=O)Nc2ccccc2F)nc2c([nH]c3ccccc32)c1=O | inconclusive: 3.98% | –
CCN(C(=O)COC(=O)CCCN1C(=O)c2cccc3cccc(c23)C1=O)C1CCS(=O)(=O)C1 (stereo unspecified) | – | inconclusive: 0.517 µM [rising, full curve]
CCc1ccc(OCCCC(=O)Nc2nnc(C3CCCO3)s2)cc1 (stereo unspecified) | inconclusive: -6.33% | –
O=C(NNC(=O)c1ccc(O)cc1O)c1ccc(Cl)cc1 | – | inconclusive: 23.1 µM [falling, single point]
Cc1c(NC(=O)c2ccccc2N(C)S(=O)(=O)c2ccccc2)c(=O)n(-c2ccccc2)n1C | inconclusive: 1.48% | –
CC(=O)c1ccc(NC(=O)/C(=C\c2cccs2)NC(=O)c2ccco2)cc1 | inconclusive: -3.24% | –
CN(C(=O)COC(=O)c1ccc2c(=O)n3c(nc2c1)CCC3)c1ccccc1 | inconclusive: 2.18% | –
COc1ccc(S(=O)(=O)Nc2ccc3c(c2)n(C)c(=O)n3C)cc1C | inconclusive: -8.26% | –
N=c1nc(-c2ccccc2)ccn1O | inconclusive: -1.76% | –
COc1ccccc1OCC(=O)NNC(=O)c1cccs1 | – | inconclusive: 29.1 µM [falling, single point]
Cc1sc(NC(=O)C2CSC3(C)CCC(=O)N23)nc1-c1ccc(F)cc1 (stereo unspecified) | inconclusive: 5.69% | –
Cc1ccc(NC2CCCCC2NS(=O)(=O)c2ccc(Cl)cc2)cc1 (stereo unspecified) | inconclusive: 5.74% | –
O=C(CSc1ccc(Br)c2cccc(Cl)c12)Nc1ccc(S(=O)(=O)Nc2nccs2)cc1 | – | inconclusive: 35.5 µM [falling, single point]
O=c1n(CCCN2CCN(c3cccc(Cl)c3)CC2)nc2ccccn12 | inconclusive: 3.41% | –
O=c1[nH]nc(-c2ccc(NCCO)c([N+](=O)[O-])c2)c2ccccc12 | – | inconclusive: 7.94 µM [falling, partial curve, poor fit]
CCCNC(=O)C(Cc1ccc(F)cc1)NC(=O)c1ccccc1 (stereo unspecified) | – | inconclusive: 23.1 µM [falling, partial curve, poor fit]
O=C(Cc1nc2ccccc2[nH]c1=O)c1ccc(Cl)cc1 | inconclusive: 479% | –
CCNC(=O)Nc1nc2ccccc2s1 | – | inconclusive: 35.5 µM [falling, single point]
COC(=O)c1ccc(S(=O)(=O)N2CCC(c3nc4ccccc4o3)CC2)cc1 | inconclusive: -23% | –
CSc1ccc(S(=O)(=O)NCC(=O)OCC(=O)N(Cc2ccccc2)C(C)C)cc1[N+](=O)[O-] | inconclusive: -24.6% | –
COc1ccccc1-n1cnc2cc(C(=O)NCCCN3CCOCC3)ccc21 | inconclusive: -3.9% | –
CSCCC(NS(=O)(=O)c1ccc(C)cc1)C(=O)NNC(=O)c1csc(N2CCOCC2)n1 (stereo unspecified) | inactive | –

Sorted by SMILES length (ascending): 3 of the compounds above.
Compound | activity change, negative = inhibition | Potency
CN(C(=O)COC(=O)c1ccc2c(=O)n3c(nc2c1)CCC3)c1ccccc1 | inconclusive: 2.18% | –
CSCCC(NS(=O)(=O)c1ccc(C)cc1)C(=O)NNC(=O)c1csc(N2CCOCC2)n1 (stereo unspecified) | inactive | –
CSc1ccc(S(=O)(=O)NCC(=O)OCC(=O)N(Cc2ccccc2)C(C)C)cc1[N+](=O)[O-] | inconclusive: -24.6% | –

(next part)

Compound | activity change, negative = inhibition | Potency
CCOc1ccc(-c2noc(-c3ccncc3)n2)cc1OCC | inconclusive: -1.45% | –
COc1ccccc1CNC(=O)C(=O)NCCC1CCCCN1S(=O)(=O)c1cccs1 (stereo unspecified) | – | inconclusive: 29.1 µM [falling, single point]
CCCCC[n+]1cccc2c3ccccc3ccc21 | inactive | –
COc1ccc(/C(O)=C2/C(=O)C(=O)N(Cc3cccnc3)C2c2ccccn2)cc1 (stereo unspecified) | inconclusive: 12.4% | –
Cc1ccc(S(=O)OCC(=O)Nc2cc(Cl)ccc2N2CCOCC2)cc1 (stereo unspecified) | – | inconclusive: 12.6 µM [falling, partial curve]
O=C(Cc1cccs1)NCCSc1c(-c2ccc(Cl)cc2)[nH]c2ccccc12 | inconclusive: 14.4% | –
COC(=O)c1c(C(=O)OC)c(-c2ccc(C)cc2)n2c1CS(=O)C2 (stereo unspecified) | inconclusive: 2.12% | –
O=C(Nn1c(Cc2cccs2)nc2ccccc2c1=O)c1cccs1 | inconclusive: 10.7% | –
O=C(NN=C1CCC(c2ccccc2)CC1)c1cc2c(s1)CCCC2 (stereo unspecified) | – | inconclusive: 3.66 µM [rising, partial curve, poor fit]
O=c1nc(N2CCCCCC2)nc(N2CCCCCC2)[nH]1 | inconclusive: 0.249% | –
Cc1nn(C)c(C(=O)N/N=C/c2ccccn2)c1[N+](=O)[O-] | inactive | –
Clc1ccc(Cn2nnc(-c3ccccc3)n2)cc1 | inconclusive: 13.2% | –
CNc1ccccc1-c1nc2ccccc2n(C)c1=O | – | inconclusive: 8.2 µM [rising, partial curve, poor fit]
CC(C)(C)Cc1nc(-c2ccccn2)no1 | – | inconclusive: 9.2 µM [falling, partial curve]
COc1ccc(OC)c(S(=O)(=O)N2CCC(C(=O)NC3CCCC3)CC2)c1 | inconclusive: 0.895% | –
CCOC(=O)CSc1nc2sc(C(=O)O)c(C)c2c(=O)[nH]1 | – | inconclusive: 6.51 µM [falling, single point]
COc1cccc(C(=O)NCCS(=O)(=O)NCc2ccco2)c1 | inconclusive: -23.9% | –
COc1ccccc1NC(=O)CCC(=O)Nc1ccccc1OC | – | inconclusive: 20.6 µM [falling, partial curve]
CCc1ccc2[nH]c(=O)c(CN(CCN(CC)CC)C(=O)Nc3ccccc3OC)cc2c1 | inactive | –
CC(C)(O)c1cc2ccc(C#Cc3ccsc3)cc2c(=O)o1 | inconclusive: 2.97% | –
COc1ccc(CNc2cc(NCCCO)c([N+](=O)[O-])c3nonc23)cc1 | inconclusive: -2.24% | –
CCN/N=C(\Cc1nc2ccccc2[nH]1)c1ccccc1 | inconclusive: -6.15% | –
O=C(OC(C(=O)NCc1ccco1)c1ccc(Cl)cc1)c1cccs1 (stereo unspecified) | inactive | –
CC1CCCN(c2ccc(C(=O)NCc3ccco3)cc2[N+](=O)[O-])C1 (stereo unspecified) | inconclusive: 6.34% | –
COc1ccc(OC)c(S(=O)(=O)Nc2cc3c(cc2N2CCCC2)n(C)c(=O)c(=O)n3C)c1 | inactive | –

Compounds above that contain a Cl atom (ten):
Compound | activity change, negative = inhibition | Potency
O=c1cc(CN2CCN(S(=O)(=O)c3ccccc3)CC2)nc2ccc(Cl)cn12 | inconclusive: -0.554% | –
O=C(NNC(=O)c1ccc(O)cc1O)c1ccc(Cl)cc1 | – | inconclusive: 23.1 µM [falling, single point]
Cc1ccc(NC2CCCCC2NS(=O)(=O)c2ccc(Cl)cc2)cc1 (stereo unspecified) | inconclusive: 5.74% | –
O=C(CSc1ccc(Br)c2cccc(Cl)c12)Nc1ccc(S(=O)(=O)Nc2nccs2)cc1 | – | inconclusive: 35.5 µM [falling, single point]
O=c1n(CCCN2CCN(c3cccc(Cl)c3)CC2)nc2ccccn12 | inconclusive: 3.41% | –
O=C(Cc1nc2ccccc2[nH]c1=O)c1ccc(Cl)cc1 | inconclusive: 479% | –
Cc1ccc(S(=O)OCC(=O)Nc2cc(Cl)ccc2N2CCOCC2)cc1 (stereo unspecified) | – | inconclusive: 12.6 µM [falling, partial curve]
O=C(Cc1cccs1)NCCSc1c(-c2ccc(Cl)cc2)[nH]c2ccccc12 | inconclusive: 14.4% | –
Clc1ccc(Cn2nnc(-c3ccccc3)n2)cc1 | inconclusive: 13.2% | –
O=C(OC(C(=O)NCc1ccco1)c1ccc(Cl)cc1)c1cccs1 (stereo unspecified) | inactive | –
